Results are given in words; binding and its absence hold for the method and conditions named. For part of these data: A result given as binding can be weak or reduced; the word gives no strength.
How the values were obtained:
Test in all cases: recruitment to a LacO array by a LacR fusion (confocal fluorescence microscopy); A03-1 cells (256xLacO arrays) co-transfected with an mCherry-LacR fusion, held on the array, and a GFP- or YFP-tagged protein; green fluorescence overlapping with the red array scored; more than 20 cells in each combination, three independent experiments
[1] = molecular target: mCherry-LacR-muLANA (p3xFLAG-CMV10-mCherry-LacR-muLANA1) (Murid herpesvirus 4 (MHV68)) (UniProt O41974)
[2] = molecular target: mCherry-LacR-mnR2-LANA (p3xFLAG-CMV10-mCherry-LacR-mnR2-LANA1) (Macaca nemestrina rhadinovirus 2) (UniProt A1XYW0)
[3] = molecular target: mCherry-LacR-saLANA (p3xFLAG-mCherry-LacR-saLANA1) (Saimirine herpesvirus 2 (Herpesvirus saimiri)) (UniProt Q80AG4)
[4] = molecular target: mCherry-LacR-baEBNA1 (p3xFLAG-CMV10.0-mCherry-LacR-baEBNA1) (Cercopithecine herpesvirus 12 (Herpesvirus papio)) (UniProt Q80890)

The chains behind the UniProt entries cited, without tags or fusion partners.
UniProt Q09472: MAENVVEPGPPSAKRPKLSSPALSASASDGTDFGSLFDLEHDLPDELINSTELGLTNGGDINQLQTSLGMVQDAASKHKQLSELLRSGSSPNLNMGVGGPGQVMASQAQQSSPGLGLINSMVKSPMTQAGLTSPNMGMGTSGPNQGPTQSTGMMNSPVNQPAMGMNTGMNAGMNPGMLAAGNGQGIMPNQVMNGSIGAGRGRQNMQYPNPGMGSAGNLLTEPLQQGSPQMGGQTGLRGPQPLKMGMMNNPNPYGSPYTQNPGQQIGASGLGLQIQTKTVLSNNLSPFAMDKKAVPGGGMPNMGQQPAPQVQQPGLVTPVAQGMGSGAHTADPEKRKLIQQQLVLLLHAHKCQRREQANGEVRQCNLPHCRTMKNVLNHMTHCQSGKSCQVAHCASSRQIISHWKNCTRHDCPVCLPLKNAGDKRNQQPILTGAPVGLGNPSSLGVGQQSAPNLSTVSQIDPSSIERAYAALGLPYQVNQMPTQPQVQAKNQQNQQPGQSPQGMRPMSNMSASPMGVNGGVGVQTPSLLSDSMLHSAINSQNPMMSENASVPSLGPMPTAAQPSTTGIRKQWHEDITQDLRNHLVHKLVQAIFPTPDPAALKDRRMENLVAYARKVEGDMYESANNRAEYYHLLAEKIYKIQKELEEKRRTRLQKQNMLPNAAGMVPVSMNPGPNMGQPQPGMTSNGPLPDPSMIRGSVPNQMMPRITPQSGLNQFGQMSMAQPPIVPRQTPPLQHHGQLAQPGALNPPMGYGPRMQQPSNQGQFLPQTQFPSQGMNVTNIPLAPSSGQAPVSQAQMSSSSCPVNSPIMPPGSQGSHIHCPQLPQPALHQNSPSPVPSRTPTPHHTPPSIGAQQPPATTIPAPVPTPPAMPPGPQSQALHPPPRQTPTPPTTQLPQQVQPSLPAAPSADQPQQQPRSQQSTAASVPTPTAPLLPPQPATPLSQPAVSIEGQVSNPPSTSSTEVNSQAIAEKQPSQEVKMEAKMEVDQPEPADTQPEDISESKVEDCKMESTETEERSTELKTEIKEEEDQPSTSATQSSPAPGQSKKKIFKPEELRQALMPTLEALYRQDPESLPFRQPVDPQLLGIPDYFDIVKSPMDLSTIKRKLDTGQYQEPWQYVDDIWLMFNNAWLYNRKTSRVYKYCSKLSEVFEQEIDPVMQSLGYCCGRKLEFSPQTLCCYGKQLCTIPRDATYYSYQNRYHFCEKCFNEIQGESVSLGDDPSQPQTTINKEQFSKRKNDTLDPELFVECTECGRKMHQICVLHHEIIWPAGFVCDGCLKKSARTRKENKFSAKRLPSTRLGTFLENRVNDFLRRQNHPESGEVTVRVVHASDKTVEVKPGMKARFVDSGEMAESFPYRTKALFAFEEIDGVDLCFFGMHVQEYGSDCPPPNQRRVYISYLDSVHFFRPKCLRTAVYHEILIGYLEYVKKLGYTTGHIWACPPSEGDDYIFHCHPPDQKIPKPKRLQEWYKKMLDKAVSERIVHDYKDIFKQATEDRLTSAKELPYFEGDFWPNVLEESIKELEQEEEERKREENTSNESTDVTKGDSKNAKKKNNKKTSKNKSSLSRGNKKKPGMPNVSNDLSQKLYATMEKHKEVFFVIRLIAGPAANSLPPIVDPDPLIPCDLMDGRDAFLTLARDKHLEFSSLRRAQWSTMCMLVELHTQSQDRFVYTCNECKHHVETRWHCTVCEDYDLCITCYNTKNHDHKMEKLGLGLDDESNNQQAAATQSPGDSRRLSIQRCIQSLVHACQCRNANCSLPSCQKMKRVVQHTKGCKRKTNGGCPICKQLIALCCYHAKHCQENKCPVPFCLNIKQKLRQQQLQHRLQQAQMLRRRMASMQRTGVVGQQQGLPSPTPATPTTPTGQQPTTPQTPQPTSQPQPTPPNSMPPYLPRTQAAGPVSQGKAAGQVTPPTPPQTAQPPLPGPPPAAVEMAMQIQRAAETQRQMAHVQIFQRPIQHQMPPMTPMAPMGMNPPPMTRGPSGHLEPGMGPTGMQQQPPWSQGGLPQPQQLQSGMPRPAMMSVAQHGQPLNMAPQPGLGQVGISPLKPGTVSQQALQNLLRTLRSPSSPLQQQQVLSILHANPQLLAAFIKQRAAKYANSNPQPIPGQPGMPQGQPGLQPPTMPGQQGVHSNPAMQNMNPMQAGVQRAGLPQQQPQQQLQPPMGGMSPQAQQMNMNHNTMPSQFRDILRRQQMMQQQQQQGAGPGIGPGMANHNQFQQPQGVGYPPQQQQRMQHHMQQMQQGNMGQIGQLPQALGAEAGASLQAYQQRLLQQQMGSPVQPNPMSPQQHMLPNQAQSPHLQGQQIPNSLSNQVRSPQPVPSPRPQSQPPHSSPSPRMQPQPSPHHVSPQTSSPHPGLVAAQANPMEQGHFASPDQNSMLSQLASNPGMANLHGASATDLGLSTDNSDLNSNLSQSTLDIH
UniProt O60264: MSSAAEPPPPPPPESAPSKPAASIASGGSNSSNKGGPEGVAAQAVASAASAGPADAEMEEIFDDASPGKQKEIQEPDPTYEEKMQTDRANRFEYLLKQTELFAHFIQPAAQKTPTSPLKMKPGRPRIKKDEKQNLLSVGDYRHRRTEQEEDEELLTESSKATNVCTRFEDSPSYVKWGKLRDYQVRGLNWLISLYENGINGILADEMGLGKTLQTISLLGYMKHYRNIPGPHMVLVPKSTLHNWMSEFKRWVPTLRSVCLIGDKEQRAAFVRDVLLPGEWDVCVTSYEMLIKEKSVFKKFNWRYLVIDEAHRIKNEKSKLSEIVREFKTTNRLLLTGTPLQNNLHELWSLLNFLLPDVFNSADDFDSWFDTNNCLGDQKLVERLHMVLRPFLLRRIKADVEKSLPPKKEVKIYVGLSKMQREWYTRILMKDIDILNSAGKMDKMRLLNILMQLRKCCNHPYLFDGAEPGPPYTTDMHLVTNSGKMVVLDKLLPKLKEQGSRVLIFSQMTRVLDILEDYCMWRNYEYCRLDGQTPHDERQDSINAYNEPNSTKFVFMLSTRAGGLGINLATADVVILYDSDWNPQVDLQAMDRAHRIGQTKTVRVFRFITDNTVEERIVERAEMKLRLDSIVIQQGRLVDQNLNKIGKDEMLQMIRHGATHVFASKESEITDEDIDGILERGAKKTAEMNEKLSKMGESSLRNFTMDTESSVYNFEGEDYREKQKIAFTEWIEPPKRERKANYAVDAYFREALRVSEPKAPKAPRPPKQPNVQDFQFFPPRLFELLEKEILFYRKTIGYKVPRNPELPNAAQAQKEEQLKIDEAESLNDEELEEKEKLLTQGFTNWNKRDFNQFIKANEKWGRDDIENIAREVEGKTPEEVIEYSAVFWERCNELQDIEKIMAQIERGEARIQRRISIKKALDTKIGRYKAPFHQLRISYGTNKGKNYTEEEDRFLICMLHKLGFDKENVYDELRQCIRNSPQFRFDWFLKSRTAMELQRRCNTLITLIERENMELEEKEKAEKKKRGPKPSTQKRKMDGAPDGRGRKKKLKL
UniProt P25440: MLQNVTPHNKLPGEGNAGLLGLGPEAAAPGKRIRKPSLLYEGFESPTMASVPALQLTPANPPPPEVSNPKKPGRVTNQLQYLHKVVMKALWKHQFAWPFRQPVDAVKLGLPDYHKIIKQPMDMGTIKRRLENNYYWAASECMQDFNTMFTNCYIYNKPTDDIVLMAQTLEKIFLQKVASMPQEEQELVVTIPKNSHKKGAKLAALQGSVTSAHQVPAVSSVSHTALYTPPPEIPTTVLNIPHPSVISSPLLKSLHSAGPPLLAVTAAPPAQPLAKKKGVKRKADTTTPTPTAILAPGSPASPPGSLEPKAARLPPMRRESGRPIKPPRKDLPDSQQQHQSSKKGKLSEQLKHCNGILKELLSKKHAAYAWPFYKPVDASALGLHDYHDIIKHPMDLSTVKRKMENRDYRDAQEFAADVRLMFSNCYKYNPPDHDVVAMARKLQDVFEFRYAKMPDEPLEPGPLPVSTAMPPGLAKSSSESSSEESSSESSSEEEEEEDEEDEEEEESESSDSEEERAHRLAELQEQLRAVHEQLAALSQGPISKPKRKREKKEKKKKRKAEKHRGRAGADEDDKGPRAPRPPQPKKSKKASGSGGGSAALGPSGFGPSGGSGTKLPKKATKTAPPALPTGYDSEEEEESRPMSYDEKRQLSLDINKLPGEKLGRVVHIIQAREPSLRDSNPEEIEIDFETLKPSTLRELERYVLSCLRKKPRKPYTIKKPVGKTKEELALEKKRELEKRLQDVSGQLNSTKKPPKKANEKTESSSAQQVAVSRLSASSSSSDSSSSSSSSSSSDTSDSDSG
UniProt P51532: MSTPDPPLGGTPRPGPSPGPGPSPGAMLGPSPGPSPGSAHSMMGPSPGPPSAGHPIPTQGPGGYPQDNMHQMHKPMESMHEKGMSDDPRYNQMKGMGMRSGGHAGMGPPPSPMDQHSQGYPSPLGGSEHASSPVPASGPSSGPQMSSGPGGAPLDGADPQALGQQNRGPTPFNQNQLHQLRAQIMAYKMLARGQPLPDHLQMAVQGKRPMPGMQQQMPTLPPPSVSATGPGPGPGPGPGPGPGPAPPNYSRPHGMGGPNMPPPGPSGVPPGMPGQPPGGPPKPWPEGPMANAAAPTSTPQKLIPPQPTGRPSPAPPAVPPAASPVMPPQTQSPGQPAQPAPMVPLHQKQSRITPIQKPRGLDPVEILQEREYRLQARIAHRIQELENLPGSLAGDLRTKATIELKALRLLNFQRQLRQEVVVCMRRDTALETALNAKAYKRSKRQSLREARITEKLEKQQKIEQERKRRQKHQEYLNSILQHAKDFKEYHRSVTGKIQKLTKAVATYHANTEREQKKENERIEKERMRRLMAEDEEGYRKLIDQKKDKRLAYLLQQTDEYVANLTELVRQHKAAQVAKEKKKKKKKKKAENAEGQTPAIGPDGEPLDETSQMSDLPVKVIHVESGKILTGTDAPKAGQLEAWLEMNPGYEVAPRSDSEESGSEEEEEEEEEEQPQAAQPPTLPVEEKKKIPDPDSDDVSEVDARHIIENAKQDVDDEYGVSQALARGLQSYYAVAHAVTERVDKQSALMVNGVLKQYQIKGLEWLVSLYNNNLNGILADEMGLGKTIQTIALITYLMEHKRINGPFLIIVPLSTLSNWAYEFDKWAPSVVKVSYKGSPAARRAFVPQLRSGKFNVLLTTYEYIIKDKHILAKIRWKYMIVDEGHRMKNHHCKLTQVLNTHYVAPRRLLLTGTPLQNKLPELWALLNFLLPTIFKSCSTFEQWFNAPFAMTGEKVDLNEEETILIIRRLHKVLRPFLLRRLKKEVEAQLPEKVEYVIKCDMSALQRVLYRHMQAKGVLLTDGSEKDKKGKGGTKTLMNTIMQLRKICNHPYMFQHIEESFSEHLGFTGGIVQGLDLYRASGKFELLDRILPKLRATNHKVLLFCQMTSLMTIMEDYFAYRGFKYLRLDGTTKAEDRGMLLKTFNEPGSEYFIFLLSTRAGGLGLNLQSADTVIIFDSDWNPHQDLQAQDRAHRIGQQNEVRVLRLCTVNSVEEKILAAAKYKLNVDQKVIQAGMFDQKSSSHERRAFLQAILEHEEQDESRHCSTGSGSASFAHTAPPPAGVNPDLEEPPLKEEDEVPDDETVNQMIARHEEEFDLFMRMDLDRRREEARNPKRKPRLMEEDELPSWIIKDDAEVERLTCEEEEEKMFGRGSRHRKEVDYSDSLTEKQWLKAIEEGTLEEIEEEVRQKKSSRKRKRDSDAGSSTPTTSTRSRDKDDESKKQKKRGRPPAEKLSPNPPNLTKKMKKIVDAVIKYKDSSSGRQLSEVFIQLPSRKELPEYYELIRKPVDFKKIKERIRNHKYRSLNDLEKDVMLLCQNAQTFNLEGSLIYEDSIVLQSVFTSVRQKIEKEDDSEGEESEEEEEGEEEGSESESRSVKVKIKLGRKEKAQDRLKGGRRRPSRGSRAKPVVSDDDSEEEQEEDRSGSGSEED

Substance | binding [1] | binding [2] | binding [3] | binding [4]
YFP-tagged GCN5 (from UniProt Q92830 1-837) | no binding | no binding | no binding | no binding
YFP-tagged p300 (from UniProt Q09472 1-2414) | no binding | no binding | no binding | no binding
SNF2H-GFP (from UniProt O60264 1-1052) | no binding | no binding | no binding | no binding
GFP-CHD4 (from UniProt Q14839 1-1912) | no binding | no binding | no binding | no binding
YFP-tagged BRD2 (from UniProt P25440 1-801) | binds | binds | binds | no binding
YFP-BRG1 (from UniProt P51532 1-1647) | no binding | no binding | no binding | no binding
YFP-tagged pCAF (from UniProt Q92831 1-832) | no binding | – | no binding | no binding

Source: PMC3646995
